The values that follow come from PubChem BioAssay AID192 (DTP/NCI, 2004).

The list is a part of this screen's results and no random one: it gathers tests that were run many times, whatever their T/C, doses with no T/C, and many T/C values between a quarter and a half above the control. Other doses and runs of a compound stand elsewhere. T/C is the treated group as % of the vehicle group. Some doses have a count of surviving animals in place of a T/C: the source holds a T/C of zero for them, seemingly a mark for toxic or unscored doses. Some doses without a T/C left all or most animals alive at the check, yet need not have been tolerated: the source hardly ever lists a survival T/C far under the control, and the zero likely stands for such cases as well. Counts of survivors are from the toxicity check (mostly the fifth day) where no day follows; animals may have died later. Schedules are NCI's codes, taken here to give the interval after Q, in days (D) or hours (H), and the number of doses after X. Some entries hold several experiments; their values stand side by side, smallest first. For survival time, the PubChem record calls one and a half times the control and up active, and a quarter to a half above the control has no call in these data; cut-offs in other NCI protocols can differ. Some T/C values carry the count of animals alive at the toxicity check (mostly the fifth day); where none is given, no animal had died by that day.

This experiment deals with BDF1 mice, B16 melanoma ip, median survival T/C. Nature of the experiment: NCI In Vivo Anticancer Drug Screen. Data for tumor model B16 Melanoma (intraperitoneal) in B6D2F1 (BDF1) mice. Particulars: T/C endpoint: median survival time, higher T/C = longer survival. The essentials:
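Tumor-bearing mice received test compound or vehicle. Survival or tumor size was then measured in both groups. The treated-group figure was divided by the control-group figure.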

Where [1] appears, read: dose: 25.0 mg/kg/injection, schedule: Q01DX009 (ip), vehicle: saline with Tween-80.
[2] abbreviates: dose: 200.0 mg/kg/injection, schedule: Q01DX009 (ip), vehicle: Klucel (hydroxypropylcellulose) (HPC).
[3] abbreviates: dose: 400.0 mg/kg/injection, schedule: Q01DX009 (ip), vehicle: Klucel (hydroxypropylcellulose) (HPC).
Where [4] appears, read: dose: 100.0 mg/kg/injection, schedule: Q01DX009 (ip), vehicle: saline with Tween-80.
[5] abbreviates: dose: 200.0 mg/kg/injection, schedule: Q01DX009 (ip), vehicle: saline with Tween-80.

Regarding `O=NN(CCBr)C(=O)Nc1ccccc1`, the T/C was 133 % of control (dose: 11.0 mg/kg/injection, schedule: Q01DX009 (ip), vehicle: saline with Tween-80); 149 % of control (dose: 16.5 mg/kg/injection, schedule: Q01DX009 (ip), vehicle: saline with Tween-80); 133 % of control under setting [1].

Regarding `COc1cc2cc(c1Cl)N(C)C(=O)CC(OC(=O)C(C)C)C1(C)OC1C(C)C1CC(O)(NC(=O)O1)C(OC)/C=C/C=C(C)C2` (stereo not given), the T/C by setting is: (dose: 4.0 micrograms/kg/injection, schedule: Q01DX009 (ip), vehicle: saline + alcohol) 141 % of control; (dose: 6.2 micrograms/kg/injection, schedule: Q01DX009 (ip), vehicle: saline + alcohol) 129 % of control [9 of 10 alive]; (dose: 6.25 micrograms/kg/injection, schedule: Q01DX009 (ip), vehicle: saline + alcohol) 139 % of control; (dose: 12.5 micrograms/kg/injection, schedule: Q01DX009 (ip), vehicle: saline + alcohol) 144 % of control. In addition, the survivor count (dose: 50.0 micrograms/kg/injection, schedule: Q01DX009 (ip), vehicle: saline + alcohol) is on record as 10 of 10; the survivor count (dose: 100.0 micrograms/kg/injection, schedule: Q01DX009 (ip), vehicle: saline + alcohol) is 1 of 10 and 10 of 10; the survivor count (dose: 200.0 micrograms/kg/injection, schedule: Q01DX009 (ip), vehicle: saline + alcohol) is 0 of 10 and 10 of 10.

Take `Cc1ccc(Cl)cc1NC(=O)c1cccc(C(=O)Nc2cc(Cl)ccc2C)c1`: under setting [2], the survivor count was 10 of 10.

As for `OCCNCCN1CCN(CCCN2c3ccccc3Sc3ccc(C(F)(F)F)cc32)CC1`, the survivor count was 10 of 10 (dose: 3.12 mg/kg/injection, schedule: Q01DX009 (ip), vehicle: saline); 8 of 10 (dose: 35.0 mg/kg/injection, schedule: Q01DX009 (ip), vehicle: saline); 5 of 10 (dose: 55.0 mg/kg/injection, schedule: Q01DX009 (ip), vehicle: saline); 0 of 10 (dose: 80.0 mg/kg/injection, schedule: Q01DX009 (ip), vehicle: saline).

Regarding `CCOC(=O)C(Cl)CCl` (stereo not given), the survivor count under setting [2] is given as 6 of 9.

With `CC[C@@]1(O)C(=O)OCc2c1cc1n(c2=O)Cc2cc3c(OC)cccc3nc2-1`, the T/C runs as follows: (dose: 0.2 mg/kg/injection, schedule: Q01DX009 (ip), vehicle: other) 146 % of control [9 of 10 alive]; (dose: 1.0 mg/kg/injection, schedule: Q01DX009 (ip), vehicle: Klucel (hydroxypropylcellulose) (HPC)) 147 % of control [9 of 10 alive]; (dose: 1.0 mg/kg/injection, schedule: Q01DX009 (ip), vehicle: carboxymethylcellulose (CMC)) 148 % of control; (dose: 2.0 mg/kg/injection, schedule: Q01DX009 (ip), vehicle: carboxymethylcellulose (CMC)) 147 % of control [9 of 10 alive]. The survivor count reads like this: (dose: 1.57 mg/kg/injection, schedule: Q01DX009 (ip), vehicle: other) 10 of 10; (dose: 3.13 mg/kg/injection, schedule: Q01DX009 (ip), vehicle: other) 9 of 10; (dose: 4.0 mg/kg/injection, schedule: Q01DX009 (ip), vehicle: Klucel (hydroxypropylcellulose) (HPC)) 10 of 10; (dose: 6.25 mg/kg/injection, schedule: Q01DX009 (ip), vehicle: other) 5 of 10; (dose: 8.0 mg/kg/injection, schedule: Q01DX009 (ip), vehicle: Klucel (hydroxypropylcellulose) (HPC)) 9 of 10; (dose: 8.0 mg/kg/injection, schedule: Q01DX009 (ip), vehicle: carboxymethylcellulose (CMC)) 9 of 10.

Regarding `Cc1cccc(NC(=O)Nc2ccc(Cl)cc2)c1C`, the survivor count (dose: 400.0 mg/kg/injection, schedule: Q01DX009 (ip), vehicle: gum acacia) was 10 of 10.

Turning to `Cc1ccc(C)n1-c1ccccc1`, the survivor count (dose: 400.0 mg/kg/injection, schedule: Q01DX009 (ip), vehicle: saline + alcohol) is given as 10 of 10.

`COc1cccc2c1C(=O)c1c(O)c3c(c(O)c1C2=O)C[C@@](O)(C(=O)COC(=O)CCCCC(=O)O)C[C@@H]3OC1CC(NC(=O)C(F)(F)F)C(O)C(C)O1` (stereo not given in full): the T/C runs as follows: (dose: 9.38 mg/kg/injection, schedule: Q01DX001 (ip), vehicle: other) 131 % of control; (dose: 18.75 mg/kg/injection, schedule: Q01DX001 (ip), vehicle: other) 136 % of control. For the same molecule, under “dose: 150.0 mg/kg/injection, schedule: Q01DX001 (ip), vehicle: other”, the survivor count is 4 of 10.

Take `COc1ccc2c(NCCCCCCCCNc3c4ccccc4nc4cc(OC)ccc34)c3ccccc3nc2c1`: the T/C is 139 % of control (dose: 0.93 mg/kg/injection, schedule: Q01DX009 (ip), vehicle: distilled water + alcohol) and 145 % of control (dose: 1.87 mg/kg/injection, schedule: Q01DX009 (ip), vehicle: distilled water + alcohol). Also, the survivor count runs as follows: (dose: 7.5 mg/kg/injection, schedule: Q01DX009 (ip), vehicle: distilled water + alcohol) 10 of 10; (dose: 15.0 mg/kg/injection, schedule: Q01DX009 (ip), vehicle: distilled water + alcohol) 5 of 10; (dose: 30.0 mg/kg/injection, schedule: Q01DX009 (ip), vehicle: distilled water + alcohol) 1 of 10.

Regarding `CCCCCCCCCCCCCCCCOc1ccc(C(=O)CC(=O)OC)cc1`, the survivor count under setting [3] is listed as 10 of 10.

For the molecule `CC(=O)OC/C=C(C)/C=C/C=C(C)/C=C/C1=C(C)CCCC1(C)C`, the survivor count is recorded as 10 of 10 (dose: 400.0 mg/kg/injection, schedule: Q01DX005 (ip), vehicle: saline with Tween-80); 10 of 10 (dose: 800.0 mg/kg/injection, schedule: Q01DX005 (ip), vehicle: saline with Tween-80); 9 of 10 (dose: 1600.0 mg/kg/injection, schedule: Q01DX005 (ip), vehicle: saline with Tween-80); 1 of 10 (dose: 2400.0 mg/kg/injection, schedule: Q01DX005 (ip), vehicle: saline with Tween-80).

For `[Cl][Pt+2][Cl].[NH-]CC1(C[NH-])CCCC1`, where the note is “dose: 0.25 mg/kg/injection, schedule: Q01DX009 (ip), vehicle: saline”, the T/C was 125 % of control [9 of 10 alive on day 10].

As to `Nc1nc(SCc2ccccc2)c2[nH]cnc2n1`, the survivor count was 6 of 6 under setting [1]; 5 of 6 (dose: 50.0 mg/kg/injection, schedule: Q01DX009 (ip), vehicle: saline with Tween-80); 6 of 6 under setting [4]; 6 of 6 under setting [5].

Take `Oc1ccc(Br)cc1-c1nc2cc(Cl)c(Cl)cc2nc1-c1cc(Br)ccc1O`: the survivor count under setting [2] is recorded as 10 of 10 and the survivor count under setting [3] was 10 of 10.

For `COc1ccc2c(c1[N+](=O)[O-])CC[C@@H]1[C@@H]2CC[C@]2(C)C(=O)CC[C@@H]12`, the survivor count is, setting by setting: under setting [5], 10 of 10; (dose: 400.0 mg/kg/injection, schedule: Q01DX009 (ip), vehicle: saline with Tween-80) 10 of 10; (dose: 800.0 mg/kg/injection, schedule: Q01DX009 (ip), vehicle: saline with Tween-80) 10 of 10.

For `CCC(C)C1NC(=O)C(NC(=O)c2c3nc4c(C(=O)NC5C(=O)NC(C(C)CC)C(=O)N6CCCC6C(=O)N(C)CC(=O)N(C)C(C(C)C)C(=O)OC5C)ccc(C)c4oc-3c(C)c(=O)c2Cl)C(C)OC(=O)C(C(C)C)N(C)C(=O)CN(C)C(=O)C2CCCN2C1=O` (stereo not given), the T/C by setting is: (dose: 2.5 mg/kg/injection, schedule: Q01DX009 (ip), vehicle: Klucel (hydroxypropylcellulose) (HPC)) 137 % of control; (dose: 5.0 mg/kg/injection, schedule: Q01DX009 (ip), vehicle: Klucel (hydroxypropylcellulose) (HPC)) 146 % of control.

Regarding `O=C1C(=O)c2ccccc2C(O)=C1CCCc1ccc(C2CCCCCC2)cc1`, the survivor count is listed as 9 of 10 under setting [4] and 8 of 10 under setting [5].
